Test results reported in the supplement of paper PMC3334620.
Whole data set: some 33,000 sequences, median “E-score (-0.5 to 0.5)” near -0.0059, cut for the highest 2% near 0.26. The list shows a part of the results.

What follows are sequences tested against T1, Cin5 (UniProt P40917) (assay: PBM E-score (8-mer binding enrichment) (E-score (-0.5 to 0.5)); higher = stronger / more preferred TF binding). Details: protein concentration: 100 nM; construct: GST-full length.
T1 sequence: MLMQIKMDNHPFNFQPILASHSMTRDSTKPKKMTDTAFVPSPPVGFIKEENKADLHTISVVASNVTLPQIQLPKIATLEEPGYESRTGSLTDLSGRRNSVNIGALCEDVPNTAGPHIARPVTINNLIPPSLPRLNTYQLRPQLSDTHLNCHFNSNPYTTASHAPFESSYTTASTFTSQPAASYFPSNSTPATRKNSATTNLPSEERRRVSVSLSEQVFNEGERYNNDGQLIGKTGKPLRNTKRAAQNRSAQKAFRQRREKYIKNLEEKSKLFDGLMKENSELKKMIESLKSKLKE
How it was run: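 Each ungapped eight-base word and its reverse complement, pooled, received an E-score from the Universal PBM Analysis Suite. Underlying scans, normalised with masliner, recorded fluorescent anti-GST bound to GST-tagged yeast transcription factors. These were applied at about 100-200 nM to universal all-10-mer Agilent arrays double-stranded by primer extension.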

Sequence | PBM E-score
CTACCCAG | -0.0241
CCGCATCC | -0.109
TAGCCTGA | -0.204
CTGAAGCA | -0.0377
ACAAAAGG | -0.0977
GGCCCTTA | -0.0642
GGGCGAAA | 0.0331
ATTCTGCC | -0.0117
AATAGAAG | -0.0436
CAGAGACC | -0.221
AAGTTCTG | -0.0241
TAGCAGGA | -0.0847
CTTAGAAA | 0.0683
CTGCTCGC | -0.0429
CTGGATAC | 0.0106
CGCGCGGA | 0.107
CTCGCCTC | -0.246
AACCTCGG | 0.00292
GGTTAGAC | -0.021
AGAGACTG | -0.178
AGTTAGAT | 0.0471
ATCACCGC | -0.069

Sequence | PBM E-score
ACTCGCCA | 0.0272
ACCGAGCA | 0.0521
GGAATGCA | 0.124
ACGCGTTA | -0.0183
ACGAGTTG | 0.0131
GTTTATCA | 0.18
AAGGCCTT | -0.267
CGACTACC | -0.181
ATGCGACC | 0.203
GCATCCAA | -0.0577
ATGGTTAA | -0.0632
CTTGTTAC | -0.0236
CATTCGGG | 0.0795
AGCAAGTG | 0.015
AATTTATA | 0.249
CATGAAGG | 0.0872
ACTAGCTC | -0.0219
GCGCGTCA | 0.0483
CCGTCTCA | -0.0703
ATTGGAGG | -0.171
CCGTCGCA | -0.0427
CAATACGG | -0.036

As entered above.
Entry of CGCGCGGA under PBM E-score: 0.107
Entry of CTTAGAAA under PBM E-score: 0.0683
Entry of CATGAAGG under PBM E-score: 0.0872
Entry of CGACTACC under PBM E-score: -0.181
Entry of TAGCCTGA under PBM E-score: -0.204

Next records.

Sequence | PBM E-score
ACGCGACT | -0.0732
ACGAGGAA | 0.187
GCGTGGTA | -0.1
ATCACCTC | -0.0112
GTAGGGGA | -0.0872
ATGCCAAT | -0.0392
AGCGTCCC | -0.0983
GAATAAAC | 0.105
CATCTTAG | 0.0266
GTTTACCA | -0.0695
ATCGATAG | 0.0934
AAGCAGAG | -0.0388
ACTCCTGC | 0.0393
GCAGACCA | -0.188
ATCTCGGG | 0.121
GCACTTTA | -0.0367
ACGCGACA | 0.0689
GCAGAGAA | -0.0127
GCCGGTCC | -0.3
CGGCTCAC | 0.0595
CGCGAGCC | -0.0158
CCGGGGAA | -0.00061

Sequence | PBM E-score
AATGGAAA | 0.203
AAGGGCAT | -0.295
AATCACAA | 0.127
AGTCCGAT | 0.00522
GTCTCAAC | -0.0587
ACTGGTCA | 0.0598
GATTATAA | 0.257
AGCGGTAC | 0.034
AAAGGATA | 0.0839
ATTGAGAG | 0.0908
CAGTACAG | 0.0274
GCCCAACA | -0.175
AATTAGTC | 0.26
AATCCCCT | -0.0363
CAGGCTTC | 0.00304
CAGTGCGA | 0.00838
CCGAAGCC | -0.231
AGCTGATG | 0.14
CCGGACTC | -0.0535
CAGTAGGG | -0.157
